Assay results as given in PubChem BioAssay AID504594 (Broad Institute, 2011).
“And” between values parts separate entries of the source, which are not always exact repeats. Equal values may be shown once. The campaign covered roughly 2,000 compounds. Fewer than 10 were called active.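 Rule for the calls: active = growth inhibition of at least 75% in every replicate, which also brings the mean inhibition to 75% or more; inconclusive = mean inhibition 75% or more but some replicate under 75%; inactive = the rest.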 This is one part of the list.

Experiment: growth inhibition of PfHsp90-dependent yeast, primary screen, antimalarial PfHsp90 inhibitor project, S. cerevisiae, BacTiter-Glo luminescence (AID 504594);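 note: 0% = DMSO neutral control wells and 100% = 20 µM radicicol control wells; higher value means stronger growth inhibition because the sign is flipped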
Conditions: S. cerevisiae expressing PfHsp90, BacTiter-Glo growth, 48 h; at 9.4 µM; active compounds read high

Row | Structure (SMILES) | growth inhibition
1 | COc1cccc(-n2cc(CNCc3c(C(=O)N(C)C)nc4ccc(Cl)cn34)cn2)c1 | inactive: -7.02%
2 | CNS(=O)(=O)c1ccc(C)cc1 | inactive: -0.442%
3 | COC(=O)c1ccc2c(c1)C(=O)/C(=C/c1ccc(O)cc1)O2 | inactive: 5.17%
4 | CN(C)C(=O)C12CCC(C)(c3nc4ccccc4nc31)C2(C)C (configuration not stated) | inactive: 17%
5 | C/C(=N\NC(=O)C1(C)CC1(Br)Br)c1ccc([N+](=O)[O-])cc1 (configuration not stated) | inactive: 4.78%
6 | c1cnc(N2CCN(Cc3ccc4c(c3)OCO4)CC2)nc1 | inactive: -1.73%
7 | CCC(CO)NCCNC(CC)CO (configuration not stated) | inactive: 16.3%
8 | CC(C)[C@H]1CN(C)CCN1Cc1cn(C)nc1-c1cccc(Cl)c1 | inactive: -4.12%
9 | CC1CCN(CCOCCOc2ccccc2Br)CC1 | inactive: 13.2%
10 | CC(C)C(=O)Nc1c(O)c2ccccc2[nH]c1=O | inactive: -8.8%
11 | O=C(Nc1c(C(=O)O)[nH]c2ccccc12)NC1CCCCC1 | inactive: -6.79%
12 | CC1(C)CC(=O)c2c(nc3ccccc3c2N)C1 | inactive: -21%
13 | CCOc1cc(C)cc2oc(=O)cc(-c3ccccc3)c12 | inactive: 6.4%
14 | OC[C@H]1O[C@@H](n2cnc3c(NC4CCCC4)ncnc32)[C@H](O)[C@@H]1O | inactive: 7.42%
15 | C1COC(NC(C2CC2)C2CC2)=N1 | inactive: -5.96%
16 | NC(N)=N/N=C/c1ccc(OS(=O)(=O)c2ccccc2)cc1 | inactive: 5.68%
17 | O=C1c2ccccc2C(=O)N1/N=C/c1ccc(Oc2ccc([N+](=O)[O-])cn2)cc1 | inactive: 4.52%
18 | COc1ccc(CCN=C(N)C(C)c2ccccc2)cc1OC (configuration not stated) | inactive: 11.4%
19 | COC1CCN(C(=O)c2ccc(OC3CCN(Cc4ccccn4)CC3)cc2)CC1 | inactive: 11.7%
20 | Cc1ccc(S(=O)(=O)Nc2ccc(S(=O)(=O)Nc3cc(C)nc(C)n3)cc2)cc1 | inactive: -2.59%
21 | CCN(CC)CCCNC(=O)C1c2ccccc2Oc2ccccc21 | inactive: 2.85%

Of the compounds above, these have a carbonyl joined to an NH by a bond outside any ring:
Row | Structure (SMILES) | growth inhibition
5 | C/C(=N\NC(=O)C1(C)CC1(Br)Br)c1ccc([N+](=O)[O-])cc1 (configuration not stated) | inactive: 4.78%
10 | CC(C)C(=O)Nc1c(O)c2ccccc2[nH]c1=O | inactive: -8.8%
11 | O=C(Nc1c(C(=O)O)[nH]c2ccccc12)NC1CCCCC1 | inactive: -6.79%
21 | CCN(CC)CCCNC(=O)C1c2ccccc2Oc2ccccc21 | inactive: 2.85%

Following part:

Row | Structure (SMILES) | growth inhibition
22 | Cc1nc(N)sc1C(=O)N/N=C/c1ccco1 | inactive: -1.68%
23 | Cc1ccc(S(=O)(=O)N[C@@H](Cc2ccccc2)C(=O)CCl)cc1 | inactive: 63.2%
24 | COc1ccc(OCC(=O)N2c3ccc(C)cc3C3CN(C)CCC32)cc1 (configuration not stated) | inactive: 13.7%
25 | COc1cccc(CN2CCN(C(=O)c3ccc(-c4ccccc4)cc3)CC2)c1 | inactive: -6.01%
26 | C1CCC(C(CC2CCCCN2)C2CCCCC2)CC1 (configuration not stated) | inactive: 12.9%
27 | Clc1ccc(OCCCN2CCCCC2)c(Br)c1 | inactive: 1.98%
28 | CC(=O)[C@@]1(O)CC[C@H]2[C@@H]3C[C@H](C)C4=CC(=O)C=C[C@]4(C)[C@@]3(F)[C@@H](O)C[C@@]21C | inactive: 4.15%
29 | CCc1nc(N)nc(N)c1-c1ccc(Cl)cc1 | inactive: 7.83%
30 | O=C(NCCc1cccc(F)c1)[C@@H]1CSC2c3ccccc3C(=O)N21 (some centres not stated) | inactive: 3.04%
31 | CC(C)NCC(O)COc1ccc(CCOCC2CC2)cc1 (configuration not stated) | inactive: -15.4%
32 | CCOc1ccc2ccccc2c1C(=O)N[C@@H]1C(=O)N2[C@@H]1SC(C)(C)[C@@H]2C(=O)O | inactive: -3.92%
33 | CCCC(=O)O[C@]1(C(=O)CCl)[C@@H](C)C[C@H]2[C@@H]3CCC4=CC(=O)C=C[C@]4(C)[C@@]3(F)C(=O)C[C@@]21C | inactive: -2.71%
34 | CCN(CC)CCNC(=O)c1cc(Cl)c(N)cc1OC | inactive: -0.117%
35 | Cn1c(=O)c2c(nc(SCCN3CCCCC3)n2C)n(C)c1=O | inactive: -0.0425%
36 | COc1cc2c(cc1OC)C1(CCCC1)CNC2c1cccc([N+](=O)[O-])c1 (configuration not stated) | inactive: -7.37%
37 | [N-]=[N+]=NC1C[C@H](n2ccc(=O)[nH]c2=O)O[C@@H]1CO (some centres not stated) | inactive: -3.51%
38 | CCc1ccc(/C=C2\Oc3cc(OC(=O)N4CCOCC4)ccc3C2=O)cc1 | inactive: -8.25%
39 | CC1=NN(c2ccccc2)C(=O)C1 | inactive: 1.75%
40 | COc1ccc(S(=O)(=O)NCc2ccco2)c2ccccc12 | inactive: -1.2%
41 | COc1ccc(CCNC(=O)c2c(O)c3c([nH]c2=O)CCCC3)cc1 | inactive: -3.5%
42 | O=C(O)CCNC(=O)c1ccccc1 | inactive: 0.443%

Row | Structure (SMILES) | growth inhibition
43 | Cc1oc2c(O)c(O)ccc2c(=O)c1-c1ccccc1 | inactive: 10.8%
44 | CC(C)CCn1c(N2CCc3ccccc3C2)nc2c1c(=O)[nH]c(=O)n2C | inactive: 1.4%
45 | c1ccc(Nc2ccccn2)nc1 | inactive: 9.43%
46 | CC(C)[N+](C)(CCOC(=O)C1c2ccccc2Oc2ccccc21)C(C)C | inactive: 6.68%
47 | c1cc2c(cc1C1CCCCC1)c1c3n2CCN=C3CCC1 | inactive: 9.82%
48 | Cc1ccc2c(c1C)NC(C(=O)O)C1CC=CC21 (configuration not stated) | inactive: -5.37%
49 | COc1cccc2c1C(=O)O/C2=C/c1ccc2c(c1)OCO2 | inactive: -11.7%
50 | CC(C)CC(=O)Nc1ccc2oc(-c3ccncc3)nc2c1 | inactive: -1.92%
51 | CCN(Cc1ccncc1)Cc1nc(Cc2ccccc2Cl)no1 | inactive: 11.7%
52 | NS(=O)(=O)c1cc2c(cc1Cl)NC(C(Cl)Cl)NS2(=O)=O (configuration not stated) | inactive: -15.3%
53 | COc1cccc(N2CC(O)=C(c3nc4ccccc4c(=O)[nH]3)C2=N)c1 | inactive: 10.7%
54 | C[C@H](NC(=O)OC(C)(C)C)C(=O)NCC1CCC(C(=O)O)CC1 (some centres not stated) | inactive: 9.54%
55 | NC(N)=NC(=O)Cc1c(Cl)cccc1Cl | inactive: 2.04%
56 | CC/C(=C(\c1ccc(O)cc1)c1ccc(OCCN(C)C)cc1)c1ccccc1 | inactive: 4.47%
57 | COc1ccc(OC)c(S(=O)(=O)N2CCCc3ccccc32)c1 | inactive: -0.0448%
58 | NCCc1cnc[nH]1 | inactive: 5.58% and inactive: -11.8%
59 | NCCCC(=O)O | inactive: -3.11%
60 | O=C(c1ccccc1)N1CCN(C(=O)c2ccccc2)CC1 | inactive: 2.86%
61 | COc1ccc2[nH]c3c(=O)n(/N=C/[C@H]4C(C)C=C(C)CC4C)c(=O)[nH]c3c2c1 (some centres not stated) | inactive: 1.84%
62 | COc1cc2c(cc1OC)C(c1cc(OC)c(OC)c(OC)c1)NCC2 (configuration not stated) | inactive: 11.1%
